The list is a part of this screen's results and no random one: it is rich in T/C values a quarter to a half above the control, in often repeated tests (any T/C) and in doses without a T/C. Other doses and runs of a compound stand elsewhere. T/C: endpoint of the treated group in % of that of the vehicle group. Some doses have a count of surviving animals in place of a T/C: the source holds a T/C of zero for them, seemingly a mark for toxic or unscored doses. Some doses without a T/C left all or most animals alive at the check, yet need not have been tolerated: survival well below the control is almost never listed, so the zero probably covers shortened survival too. Counts of survivors are from the toxicity check (mostly the fifth day) where no day follows; animals may have died later. Schedules are NCI's codes, read here as Q, the interval in days (D) or hours (H), X, the number of doses. Some entries were tested several times; the values are given in rising order. For survival time, this PubChem deposit counts one and a half times the control or more as active, and values a quarter to a half above the control carry no call in these data; other NCI protocols may use other cut-offs. Additions like (4×) say how often a value occurs here. Some T/C values are followed by the survivors on the day toxicity was checked, most often the fifth; where none is given, no animal had died by that day.
Tested on: B6C3F1 mice, B16 melanoma ip, median survival T/C
Assay: NCI In Vivo Anticancer Drug Screen. Data for tumor model B16 Melanoma (intraperitoneal) in B6C3F1 mice
Settings: T/C endpoint: median survival time, higher T/C = longer survival
Procedure, shortened: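 Transplantable tumor in mice; treated vs vehicle control groups; survival or tumor size measured; value = T/C ratio.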

[1] = dose: 800.0 mg/kg/injection, schedule: Q01DX009 (ip), vehicle: Klucel (hydroxypropylcellulose) (HPC)
[2] = dose: 6.25 mg/kg/injection, schedule: Q01DX009 (ip), vehicle: saline with Tween-80
[3] = dose: 25.0 mg/kg/injection, schedule: Q01DX009 (ip), vehicle: saline with Tween-80
[4] = dose: 100.0 mg/kg/injection, schedule: Q01DX009 (ip), vehicle: saline with Tween-80
[5] = dose: 200.0 mg/kg/injection, schedule: Q01DX009 (ip), vehicle: saline with Tween-80
[6] = dose: 400.0 mg/kg/injection, schedule: Q01DX009 (ip), vehicle: saline with Tween-80
[7] = dose: 800.0 mg/kg/injection, schedule: Q01DX009 (ip), vehicle: saline
[8] = dose: 100.0 mg/kg/injection, schedule: Q01DX009 (ip), vehicle: saline
[9] = dose: 200.0 mg/kg/injection, schedule: Q01DX009 (ip), vehicle: saline
[10] = dose: 50.0 mg/kg/injection, schedule: Q01DX009 (ip), vehicle: Klucel (hydroxypropylcellulose) (HPC)
[11] = dose: 160.0 mg/kg/injection, schedule: Q01DX009 (ip), vehicle: saline with Tween-80
[12] = dose: 400.0 mg/kg/injection, schedule: Q01DX009 (ip), vehicle: saline
[13] = dose: 150.0 mg/kg/injection, schedule: Q01DX009 (ip), vehicle: saline
[14] = dose: 600.0 mg/kg/injection, schedule: Q01DX009 (ip), vehicle: saline
[15] = dose: 400.0 mg/kg/injection, schedule: Q01DX009 (ip), vehicle: Klucel (hydroxypropylcellulose) (HPC)

In the case of `COCC1OC2OC3C(COC)OC(OC4C(COC)OC(OC5C(COC)OC(OC6C(COC)OC(OC7C(COC)OC(OC8C(COC)OC(OC1C(O)C2O)C(O)C8O)C(O)C7O)C(O)C6O)C(O)C5O)C(O)C4O)C(O)C3O` (stereo not given) (tested in a mixture with another compound), the survivor count (dose: 50.0 mg/kg/injection, schedule: Q01DX009 (oral), vehicle: Klucel (hydroxypropylcellulose) (HPC)) is reported as 9 of 10, the survivor count (dose: 200.0 mg/kg/injection, schedule: Q01DX009 (oral), vehicle: Klucel (hydroxypropylcellulose) (HPC)) is reported as 9 of 10 and 10 of 10 and the survivor count (dose: 200.0 mg/kg/injection, schedule: Q04HX027 (ip), vehicle: Klucel (hydroxypropylcellulose) (HPC)) is reported as 10 of 10. For the same compound, the survivor count (dose: 400.0 mg/kg/injection, schedule: Q04HX027 (ip), vehicle: Klucel (hydroxypropylcellulose) (HPC)) was 8 of 10, the survivor count [1] was 5 of 10 and the survivor count (dose: 800.0 mg/kg/injection, schedule: Q01DX009 (oral), vehicle: Klucel (hydroxypropylcellulose) (HPC)) was 7 of 10. The survivor count (dose: 800.0 mg/kg/injection, schedule: Q04HX027 (ip), vehicle: Klucel (hydroxypropylcellulose) (HPC)) was 1 of 10, the survivor count (dose: 1600.0 mg/kg/injection, schedule: Q01DX009 (oral), vehicle: Klucel (hydroxypropylcellulose) (HPC)) was 1 of 10 and the survivor count (dose: 3200.0 mg/kg/injection, schedule: Q01DX009 (oral), vehicle: Klucel (hydroxypropylcellulose) (HPC)) was 9 of 10.
In the case of `Oc1cc2ccccc2c(-c2c(O)c(O)cc3ccccc23)c1O`, the T/C [2] is reported as 128 % of control, the T/C (dose: 12.5 mg/kg/injection, schedule: Q01DX009 (ip), vehicle: saline with Tween-80) is reported as 94, 95, 127, 137 % of control and the T/C [3] is reported as 105 [9 of 10 alive], 114, 116, 137 % of control. The T/C (dose: 50.0 mg/kg/injection, schedule: Q01DX009 (ip), vehicle: saline with Tween-80) was 108, 113, 128 [8 of 9 alive], 137 % of control, the T/C [4] was 113 and 167 % of control [9 of 10 alive] and the survivor count [4] was 8 of 10. The survivor count [5] was 7 of 10 and 10 of 10 and the survivor count [6] was 0 of 10 and 8 of 10.
In the case of `NCCc1ccc(O)cc1`, the survivor count [7] is reported as 0 of 10.
For `CCOC(=O)c1c[nH]c2oc(/C=N/N3CC(CN4CCOCC4)OC3=O)cc2c1=O` (stereo not given), the T/C [8] was 125 % of control and the T/C [9] was 130 % of control.
With `O=C(C#Cc1ccccc1)c1ccccc1` the survivor count [10] was 1 of 10 and the survivor count (dose: 100.0 mg/kg/injection, schedule: Q01DX009 (ip), vehicle: Klucel (hydroxypropylcellulose) (HPC)) was 0 of 10.
`COc1cccc(Sc2ccc([N+](=O)[O-])c3no[n+]([O-])c23)c1` was tested, and the survivor count (dose: 120.0 mg/kg/injection, schedule: Q01DX009 (ip), vehicle: saline with Tween-80) was 8 of 10, the survivor count (dose: 240.0 mg/kg/injection, schedule: Q01DX009 (ip), vehicle: saline with Tween-80) was 0 of 10 and the survivor count (dose: 480.0 mg/kg/injection, schedule: Q01DX009 (ip), vehicle: saline with Tween-80) was 0 of 10.
In the case of `[Cl][Pt+2][Cl].[NH-]c1ccc([N+](=O)[O-])cc1[NH-]`, the survivor count [11] is reported as 2 of 10.
In the case of `Nc1nc(-c2cccc(S(=O)(=O)O)c2)c([N+](=O)[O-])c(=O)[nH]1`, the T/C (dose: 103.0 mg/kg/injection, schedule: Q01DX009 (ip), vehicle: saline) is reported as 131 % of control.
With `c1cnc2ncncc2n1` the survivor count [12] was 2 of 10.
With `NCc1ccc(O)c(O)c1` the T/C (dose: 50.0 mg/kg/injection, schedule: Q01DX009 (ip), vehicle: saline) was 102 (2×), 111, 112 % of control, the T/C [8] was 100 [9 of 10 alive], 112, 123 [9 of 10 alive], 142 % of control and the T/C (dose: 112.5 mg/kg/injection, schedule: Q03HX024 (ip), vehicle: saline) was 138 % of control (2×). For the same compound, the T/C [13] was 125 % of control, the T/C [9] was 110 (2×), 125, 148 % of control [9 of 10 alive] and the T/C (dose: 300.0 mg/kg/injection, schedule: Q01DX009 (ip), vehicle: saline) was 127 % of control. The T/C (dose: 300.0 mg/kg/injection, schedule: Q03HX024 (ip), vehicle: saline) was 142 % of control (2×), the T/C [12] was 133 % of control and the T/C [14] was 125 % of control. The survivor count [14] was 8 of 10 and 10 of 10, the T/C [7] was 118, 119, 132, 137 % of control and the survivor count (dose: 1200.0 mg/kg/injection, schedule: Q01DX009 (ip), vehicle: saline) was 10 of 10.
`O=C1N[C@@H]2C(=C[C@H](O)[C@@H](O)[C@H]2O)c2cc3c(c(O)c21)OCO3` was tested, and the survivor count (dose: 10.0 mg/kg/injection, schedule: Q01DX009 (ip), vehicle: saline with Tween-80) was 6 of 9.
In the case of `C1CC[N-]CC1.[Cl][Pt+2][Cl].[NH-]C1CC1`, the T/C (dose: 3.12 mg/kg/injection, schedule: Q01DX009 (ip), vehicle: saline with Tween-80) is reported as 134 % of control, the T/C [2] is reported as 140 % of control and the T/C (dose: 12.5 mg/kg/injection, schedule: Q01DX009 (ip), vehicle: water) is reported as 128 % of control. The survivor count [3] was 10 of 10, the T/C (dose: 25.0 mg/kg/injection, schedule: Q01DX009 (ip), vehicle: water) was 139 % of control and the survivor count (dose: 50.0 mg/kg/injection, schedule: Q01DX009 (ip), vehicle: water) was 4 of 10.
In the case of `COc1c(CNC(=O)CCl)cc2[nH]c(C)cc2c1CNC(=O)CCl`, the T/C [10] is reported as 132 % of control, the survivor count (dose: 200.0 mg/kg/injection, schedule: Q01DX009 (ip), vehicle: Klucel (hydroxypropylcellulose) (HPC)) is reported as 10 of 10 and the survivor count [15] is reported as 5 of 10.
For `O=C1SC(c2ccccc2)=S=C1c1ccccc1`, the survivor count [15] was 2 of 10 and the survivor count [1] was 2 of 10.
For `Cc1nc2ccccc2c(C(=O)NO)[n+]1[O-]`, the survivor count (dose: 50.0 micrograms/kg/injection, schedule: Q01DX009 (ip), vehicle: other) was 10 of 10 and the survivor count (dose: 100.0 micrograms/kg/injection, schedule: Q01DX009 (ip), vehicle: other) was 10 of 10.
`Cc1cc2c(C(C)C)c(O)c(O)c(C=NCCO)c2c(O)c1-c1c(C)cc2c(C(C)C)c(O)c(O)c(C=NCCO)c2c1O` was tested, and the T/C [5] was 140 % of control, the T/C [6] was 131 % of control and the survivor count [6] was 10 of 10.
With `NC(CCCNc1cccc(O)c1)C(=O)O` (stereo not given) the survivor count [13] was 10 of 10.
`CC(C)C(NC(=O)C(F)(F)F)C(=O)O` (stereo not given) was tested, and the survivor count [9] was 9 of 10.
For `COc1cc2cc(c1Cl)N(C)C(=O)CC(OC(=O)CC(C)C)C1(C)OC1C(C)C1CC(O)(NC(=O)O1)C(OC)/C=C/C=C(C)C2` (stereo not given), the T/C (dose: 6.2 micrograms/kg/injection, schedule: Q01DX009 (ip), vehicle: saline + alcohol) was 131 % of control, the T/C (dose: 12.5 micrograms/kg/injection, schedule: Q01DX009 (ip), vehicle: saline + alcohol) was 132 % of control and the T/C (dose: 25.0 micrograms/kg/injection, schedule: Q01DX009 (ip), vehicle: saline + alcohol) was 138 % of control. For the same compound, the survivor count (dose: 50.0 micrograms/kg/injection, schedule: Q01DX009 (ip), vehicle: saline + alcohol) was 10 of 10, the survivor count (dose: 100.0 micrograms/kg/injection, schedule: Q01DX009 (ip), vehicle: saline + alcohol) was 8 of 10 and the survivor count (dose: 200.0 micrograms/kg/injection, schedule: Q01DX009 (ip), vehicle: saline + alcohol) was 1 of 10.
For `COc1ccc(-c2c3c(cc4cc5c(cc24)OCO5)C(=O)OC3)cc1OC`, the survivor count (dose: 96.0 mg/kg/injection, schedule: Q01DX009 (ip), vehicle: Klucel (hydroxypropylcellulose) (HPC)) was 6 of 6.
In the case of `CC(C)(C)Oc1ccc(CC(NC(=O)OCC2c3ccccc3-c3ccccc32)C(=O)O)cc1` (stereo not given), the survivor count [15] is reported as 0 of 10.
In the case of `CC(NC(=O)c1ccccc1)C(=O)O` (stereo not given), the survivor count [11] is reported as 6 of 6, the survivor count (dose: 320.0 mg/kg/injection, schedule: Q01DX009 (ip), vehicle: saline with Tween-80) is reported as 6 of 6 and the survivor count (dose: 640.0 mg/kg/injection, schedule: Q01DX009 (ip), vehicle: saline with Tween-80) is reported as 6 of 6.
